Experimental data: PubChem BioAssay AID504793 (Drosophila RNAi Screening Center, 2011)
Purpose: 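Whole-genome screen for parts of the DNA damage checkpoint at G2/M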 (primary screen). System: Drosophila S2R+ cells. Knock-down reagent: long dsRNA against Drosophila genes, about 0.25 µg dsRNA per well. Time to read-out: 4 days of dsRNA, then 4 hours of drug before read-out. Treatment: doxorubicin 0.5 µM for 4 hours to cause double-strand breaks, in cells also given a low, harmless dose of dsRNA against nbs to sensitise the assay. Read-out: 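Per-well count of mitotic cells stained for phospho-histone H3 after doxorubicin exposure, used as mitotic index; counts are raw and not normalised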. Scale: mitotic cells: higher = more cells in mitosis, weaker G2 arrest. Call rule: 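a call needs confirmation in secondary tests, with other dsRNAs and a check of mitotic timing without damage, not just a high primary count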. Calls: active = confirmed in follow-up tests; inactive = not confirmed.
The screen tested about 23,000 reagents; below is a random part of those that have a named target and a result. Of all reagents, 62 (0.27%) are marked active. 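Calls come from follow-up tests whose scores are not deposited, so confirmed genes may have low counts here; counts are not normalised per plate.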 Raw values vary from plate to plate and are shown uncorrected. Entries without a mark were called inactive. The numbers tell different reagents against one gene apart. Names joined by + are all predicted targets of the reagent.

no.	gene	reagent	mitotic cells, replicate 1	mitotic cells, replicate 2
1	Ugt50B3 (UDP-glycosyltransferase family 50 member B3)	1	3	
2	Ugt50B3 (UDP-glycosyltransferase family 50 member B3)	2	6	
3	Ada3 (transcriptional Adaptor 3)	1	9	
4	Ada3 (transcriptional Adaptor 3)	2	11	
5	CG6972 + CCAP	1	13	
6	CG10801	1	12	
7	Pburs (Partner of Bursicon)	1	2	
8	ex (expanded)	1	2	
9	ex (expanded)	2	4	
10	Lapsyn (Leucine-rich repeat activity-regulated protein at synapses)	1	2	
11	SLC5A11 (Sodium/solute co-transporter-like 5A11)	1	3	
12	Top3beta (Topoisomerase 3beta)	1	3	
13	mmd (mind-meld)	1	9	
14	mmd (mind-meld)	2	13	
15	mmd (mind-meld)	3	13	
16	CG14013	1	1	
17	CG30075	1	8	
18	heca (headcase)	1	6	
19	heca (headcase)	2	4	
20	Megf8 (Multiple EGF like domains 8)	1	3	
21	CG14566	1	2	
22	CG14566	2	2	
23	heix (heixuedian)	1	2	
24	Hrb98DE (Heterogeneous nuclear ribonucleoprotein at 98DE)	1	6	
25	Hrb98DE (Heterogeneous nuclear ribonucleoprotein at 98DE)	2	14	
26	PTP-ER (Protein tyrosine phosphatase-ERK/Enhancer of Ras1)	1	7	
27	PTP-ER (Protein tyrosine phosphatase-ERK/Enhancer of Ras1)	2	10	
28	PTP-ER (Protein tyrosine phosphatase-ERK/Enhancer of Ras1)	3	5	
29	psq (pipsqueak)	1	14	
30	psq (pipsqueak)	2	4	
31	Roe1	1	6	
32	Roe1	2	13	
33	CG33252	1	10	
34	CG31199	1	7	
35	CG2111	1	11	
36	CG2111	2	3	
37	en (engrailed)	1	3	
38	en (engrailed)	2	6	
39	Tdc1 (Tyrosine decarboxylase 1)	1	8	
40	ImpE2 (Ecdysone-inducible gene E2)	1	7	
41	ImpE2 (Ecdysone-inducible gene E2)	2	11	
42	Akr1B (Aldo-keto reductase 1B)	1	4	
43	CG31109	1	13	
44	al (aristaless)	1	11	
45	acj6 (abnormal chemosensory jump 6)	1	7	
46	acj6 (abnormal chemosensory jump 6)	2	2	
47	CG7362	1	10	
48	CG7362	2	6	
49	CG4570	1	7	
50	CG15177	1	5	
51	CG15177	2	4	
52	CG5065	1	9	
53	CG12971	1	2	
54	CG12971	2	5	
55	CG41520	1	11	
56	CG7945 + yellow-k	1	4	
57	CG11905	1	2	
58	CG11905	2	7	
59	CG6287	1	4	
60	CG6287	2	3	
61	Elo68alpha (Elongase 68alpha)	1	10	
62	CR11235 (pseudo)	1	3	
63	CR11235 (pseudo)	2	6	
64	Sry-beta (Serendipity beta)	1	7	
65	Sry-beta (Serendipity beta)	2	7	
66	LpR1 (Lipophorin receptor 1)	1	9	
67	LpR1 (Lipophorin receptor 1)	2	15	
68	LpR1 (Lipophorin receptor 1)	3	9	
69	LpR1 (Lipophorin receptor 1)	4	6	
70	CG15578	1	11	
71	thw (thawb)	1	7	
72	asrij	1	2	
73	hang (hangover)	1	11	
74	hang (hangover)	2	7	
75	Antdh (Antennal dehydrogenase)	1	2	
76	Antdh (Antennal dehydrogenase)	2	12	
77	Glys (Glycogen synthase)	1	3	

Part of the list above, set out differently.
{"gene":"mmd (mind-meld)","reagent":2,"mitotic cells, replicate 1":13}
{"gene":"mmd (mind-meld)","reagent":3,"mitotic cells, replicate 1":13}
{"gene":"CG14013","reagent":1,"mitotic cells, replicate 1":1}
{"gene":"CG30075","reagent":1,"mitotic cells, replicate 1":8}
{"gene":"heca (headcase)","reagent":1,"mitotic cells, replicate 1":6}
{"gene":"heca (headcase)","reagent":2,"mitotic cells, replicate 1":4}
{"gene":"Megf8 (Multiple EGF like domains 8)","reagent":1,"mitotic cells, replicate 1":3}
{"gene":"CG14566","reagent":1,"mitotic cells, replicate 1":2}
{"gene":"CG14566","reagent":2,"mitotic cells, replicate 1":2}
{"gene":"heix (heixuedian)","reagent":1,"mitotic cells, replicate 1":2}
{"gene":"Hrb98DE (Heterogeneous nuclear ribonucleoprotein at 98DE)","reagent":1,"mitotic cells, replicate 1":6}
{"gene":"Hrb98DE (Heterogeneous nuclear ribonucleoprotein at 98DE)","reagent":2,"mitotic cells, replicate 1":14}
{"gene":"PTP-ER (Protein tyrosine phosphatase-ERK/Enhancer of Ras1)","reagent":1,"mitotic cells, replicate 1":7}
{"gene":"PTP-ER (Protein tyrosine phosphatase-ERK/Enhancer of Ras1)","reagent":2,"mitotic cells, replicate 1":10}
{"gene":"PTP-ER (Protein tyrosine phosphatase-ERK/Enhancer of Ras1)","reagent":3,"mitotic cells, replicate 1":5}
{"gene":"psq (pipsqueak)","reagent":1,"mitotic cells, replicate 1":14}

The listing continues.
no.	gene	reagent	mitotic cells, replicate 1	mitotic cells, replicate 2
78	igl (igloo)	1	7	
79	igl (igloo)	2	6	
80	Kif19A (Kinesin family member 19A)	1	7	
81	Kif19A (Kinesin family member 19A)	2	9	
82	CG15515	1	8	
83	CG15717	1	6	
84	CG16985	1	8	
85	CG17734	1	5	13
86	CG17734	2	7	
87	prd (paired)	1	9	
88	CG3213	1	5	
89	CG3213	2	5	
90	obst-H (obstructor-H)	1	7	
91	obst-H (obstructor-H)	2	6	
92	Rab9Db + Rab9D + Rab9E	1	3	
93	CG4362	1	9	
94	l(2)37Cb (lethal (2) 37Cb)	1	5	
95	l(2)37Cb (lethal (2) 37Cb)	2	5	
96	CG6843	1	6	
97	CG6843	2	8	
98	CG13196	1	5	
99	Naa30B (N(alpha)-acetyltransferase 30 B)	1	3	
100	CG15296	1	11	
101	CG15296	2	6	
102	Ypel (Yippee-like)	1	11	
103	Ypel (Yippee-like)	2	4	
104	eve (even skipped)	1	10	
105	CG9815	1	2	
106	CG9815	2	6	
107	wdn (wings down)	1	5	
108	wdn (wings down)	2	2	
109	E5	1	16	
110	E5	2	8	
111	E5	3	4	
112	ebi	1	6	
113	Idgf6 (Imaginal disc growth factor 6)	1	1	
114	Idgf6 (Imaginal disc growth factor 6)	2	8	
115	CG1578	1	5	
116	CG1578	2	6	
117	ksr (kinase suppressor of ras)	1	6	
118	ksr (kinase suppressor of ras)	2	7	
119	GlcAT-I (Glucuronyltransferase I)	1	4	
120	Rab6	1	11	
121	Rab6	2	5	
122	RpS5a (Ribosomal protein S5a)	1	6	
123	CG5756	1	5	
124	CG5756	2	7	
125	CG5800	1	15	
126	CG5800	2	3	
127	unc-119	1	10	
128	unc-119	2	6	
129	SMC2 (Structural maintenance of chromosomes 2)	1	9	
130	SMC2 (Structural maintenance of chromosomes 2)	2	13	
131	bbx + waw	1	6	
132	bbx + waw	2	4	
133	Blm + CG14721	1	2	
134	IntS10 (Integrator 10)	1	3	
135	eIF4E1 (eukaryotic translation initiation factor 4E1)	1	11	
136	eIF4E1 (eukaryotic translation initiation factor 4E1)	2	7	
137	stumps	1	1	
138	stumps	2	3	
139	CG10650	1	3	
140	CG4982	1	4	
